According to paper doi:10.1101/2025.11.23.689992:
No constants are given. Whether binding was seen depends on the method and setting. In cells and extracts the contact can be indirect. Some results given as binding are weak or reduced against the parent protein; the word gives no strength.

The chains behind the UniProt entries cited, without tags or fusion partners.
UniProt P46937: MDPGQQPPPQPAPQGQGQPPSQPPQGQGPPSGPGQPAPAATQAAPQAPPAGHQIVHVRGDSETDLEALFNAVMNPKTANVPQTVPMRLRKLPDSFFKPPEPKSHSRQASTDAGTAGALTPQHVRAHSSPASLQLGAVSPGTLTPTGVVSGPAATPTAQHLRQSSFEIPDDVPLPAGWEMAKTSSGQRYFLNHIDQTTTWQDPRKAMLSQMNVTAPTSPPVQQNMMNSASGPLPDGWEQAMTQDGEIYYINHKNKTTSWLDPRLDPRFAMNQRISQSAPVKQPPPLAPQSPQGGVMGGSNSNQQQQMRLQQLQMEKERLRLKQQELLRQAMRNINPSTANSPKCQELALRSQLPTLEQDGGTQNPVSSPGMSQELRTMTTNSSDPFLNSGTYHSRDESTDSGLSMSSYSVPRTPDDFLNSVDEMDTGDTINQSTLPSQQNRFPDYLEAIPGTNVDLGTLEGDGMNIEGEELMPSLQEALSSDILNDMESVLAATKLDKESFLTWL
UniProt Q9UKN5: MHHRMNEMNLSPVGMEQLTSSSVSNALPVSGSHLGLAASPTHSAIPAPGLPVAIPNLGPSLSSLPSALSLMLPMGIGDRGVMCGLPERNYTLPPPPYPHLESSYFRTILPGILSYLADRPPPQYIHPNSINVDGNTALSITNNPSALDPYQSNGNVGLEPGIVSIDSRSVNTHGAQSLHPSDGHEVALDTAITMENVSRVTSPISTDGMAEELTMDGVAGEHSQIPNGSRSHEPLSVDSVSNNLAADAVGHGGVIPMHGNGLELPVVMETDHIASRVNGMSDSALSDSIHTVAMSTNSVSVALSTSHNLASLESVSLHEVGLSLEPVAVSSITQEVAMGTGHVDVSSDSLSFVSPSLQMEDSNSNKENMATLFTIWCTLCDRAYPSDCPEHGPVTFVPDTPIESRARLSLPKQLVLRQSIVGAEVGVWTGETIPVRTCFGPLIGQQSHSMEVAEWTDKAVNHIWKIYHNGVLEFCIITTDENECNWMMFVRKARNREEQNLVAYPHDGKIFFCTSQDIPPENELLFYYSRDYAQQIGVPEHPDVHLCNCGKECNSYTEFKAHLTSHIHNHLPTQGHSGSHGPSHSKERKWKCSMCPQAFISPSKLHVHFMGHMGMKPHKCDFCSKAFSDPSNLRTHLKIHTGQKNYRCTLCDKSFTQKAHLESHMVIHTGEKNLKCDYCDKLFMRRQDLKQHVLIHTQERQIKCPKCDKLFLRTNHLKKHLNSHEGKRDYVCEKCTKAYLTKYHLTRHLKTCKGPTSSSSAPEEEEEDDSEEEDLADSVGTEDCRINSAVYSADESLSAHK

What was measured:
[1] = target: Full-length YAP1 with C-terminal FLAG tag (UniProt P46937); test: pull-down
[2] = target: YAP1-TEAD1-enhancer (YTE) complex (UniProt P46937); test: pull-down

Question: Which results are given for PRDM4 (from UniProt Q9UKN5 1-801)?
Answer: binding [1]: binds; binding [2]: binds
